Data: patent US20240279149A1 (ZHEJIANG OCEAN UNIVERSITY, priority 2021, published 2024)

Test: Sensory evaluation of photodynamically treated shrimp in 4° C. storage
Parameters: species or system Chinese tube whip shrimp
Details: after 10 days of storage at 4° C.; score of 9 indicates significant quality deterioration

COc1cc(/C=C/C=C/C(O)=C/C(=O)/C=C/c2ccc(Br)c(OC)c2)ccc1Br [Embodiment 1]
quality deterioration by sensory score: no significant quality deterioration
